# Reference: patent US20050124586A1, “Alpha-substituted arylalkyl phosphonate derivatives” (priority 2002, published 2005)
# Some of these results come from one statement about several compounds together.
# Test system: apo (a)
# Assay: apo (a) production in primary cultures of Cynomolgus hepatocytes (ELISA)
# Assay type: cell-based, Cynomolgus monkey
# Details: 20 μM test compound, 6-24 hours incubation
row,SMILES,"lowering of apo (a) secretion, change in apo (a) concentration in culture medium as percentage of control"
1,"COc1cc(C(Cc2cccnc2)P(=O)(OC)OC)cc(OC)c1O (racemic) [Compound 1, Dimethyl α-(3,5-dimethoxy-4-hydroxyphenyl)-β-(3-pyridyl)ethylphosphonate]",−15 to −25%
2,"CCOP(=O)(OCC)C(Cc1cccnc1)c1cc(C)c(O)c(C)c1 (racemic) [Compound 7, diethyl α-(3,5-dimethyl-4-hydroxyphenyl)-β-(3-pyridyl)ethylphosphonate]",−25% to −45
